Residue numbers refer to the chain shown, from its start. Names and notes keep the numbering of the source. Results are given in words; binding and its absence hold for the method and conditions named. Binding seen in cells or lysates may run through a third protein. Some binding calls cover weakened binding; strength is not graded here. For some of these results: Sequences can lack the tags named with a protein.

Sequences of proteins named here, by UniProt entry; tags and fusion partners are left off.
UniProt Q13164: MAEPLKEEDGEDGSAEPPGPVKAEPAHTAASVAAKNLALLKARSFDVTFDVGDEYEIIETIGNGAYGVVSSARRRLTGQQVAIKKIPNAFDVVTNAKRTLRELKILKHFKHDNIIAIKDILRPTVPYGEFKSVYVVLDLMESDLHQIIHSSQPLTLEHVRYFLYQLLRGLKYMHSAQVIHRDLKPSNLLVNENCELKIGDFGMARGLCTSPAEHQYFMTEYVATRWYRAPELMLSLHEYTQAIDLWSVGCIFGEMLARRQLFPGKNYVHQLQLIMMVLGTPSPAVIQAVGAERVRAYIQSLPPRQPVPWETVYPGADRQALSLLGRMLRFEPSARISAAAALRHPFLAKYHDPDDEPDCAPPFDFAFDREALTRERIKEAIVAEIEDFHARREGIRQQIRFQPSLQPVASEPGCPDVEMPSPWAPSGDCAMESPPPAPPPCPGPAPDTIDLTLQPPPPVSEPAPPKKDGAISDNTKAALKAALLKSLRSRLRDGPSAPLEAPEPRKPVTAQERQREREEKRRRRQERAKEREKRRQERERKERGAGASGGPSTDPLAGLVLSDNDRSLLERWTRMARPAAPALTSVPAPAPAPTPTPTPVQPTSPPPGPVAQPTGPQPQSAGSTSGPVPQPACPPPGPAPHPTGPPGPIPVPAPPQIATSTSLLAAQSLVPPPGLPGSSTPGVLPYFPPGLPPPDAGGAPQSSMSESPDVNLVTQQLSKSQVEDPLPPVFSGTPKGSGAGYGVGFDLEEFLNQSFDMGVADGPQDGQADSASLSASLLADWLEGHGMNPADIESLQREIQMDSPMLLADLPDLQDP
UniProt Q14790: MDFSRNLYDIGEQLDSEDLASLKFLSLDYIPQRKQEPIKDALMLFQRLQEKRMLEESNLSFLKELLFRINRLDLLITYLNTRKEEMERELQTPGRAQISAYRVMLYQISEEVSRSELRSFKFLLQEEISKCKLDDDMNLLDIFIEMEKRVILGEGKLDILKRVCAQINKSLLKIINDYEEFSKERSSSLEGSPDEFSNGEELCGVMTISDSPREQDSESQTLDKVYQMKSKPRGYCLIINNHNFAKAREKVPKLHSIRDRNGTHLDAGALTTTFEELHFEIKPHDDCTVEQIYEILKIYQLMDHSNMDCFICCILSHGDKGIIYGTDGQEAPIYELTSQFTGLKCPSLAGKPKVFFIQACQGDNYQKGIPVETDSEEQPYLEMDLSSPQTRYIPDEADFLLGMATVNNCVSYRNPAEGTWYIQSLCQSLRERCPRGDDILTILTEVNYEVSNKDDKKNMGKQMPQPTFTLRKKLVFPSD

From publication PMC10622508 come the findings set out here.

In test [1] the target is T1, FLAG-tagged human TP53INP2 (wild type) (human) (UniProt Q8IXH6).
T1 sequence: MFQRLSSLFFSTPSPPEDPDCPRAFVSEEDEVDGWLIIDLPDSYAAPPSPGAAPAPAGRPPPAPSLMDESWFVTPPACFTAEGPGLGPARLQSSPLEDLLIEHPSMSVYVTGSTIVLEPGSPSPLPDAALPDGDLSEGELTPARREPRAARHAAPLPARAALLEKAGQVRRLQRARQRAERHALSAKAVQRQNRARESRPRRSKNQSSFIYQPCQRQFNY
In words: co-IP; FLAG-TP53INP2 immunoprecipitated (anti-FLAG-M2 affinity beads) from lysates of HEK293T cells treated with vehicle or 3 uM JWG-071 for 6 h; Caspase-8 detected by immunoblot; NP-40 buffer.

Test [2] deals with MAP kinase ERK5 (endogenous) (human (endogenous in Ishikawa)) (UniProt Q13164). In words: co-IP; 1 mg Ishikawa cell lysate immunoprecipitated with anti-ERK5 antibody on protein G-sepharose, 2 h at 4 C, NP-40 buffer; endogenous TP53INP2 and ERK5 detected by immunoblot.
In test [3] the target is GST-tagged human ERK5 (WT) (human) (UniProt Q13164). In words: co-IP; lysates of cells overexpressing GST-tagged ERK5 and FLAG-tagged TP53INP2 (wild type or 3A); anti-FLAG-M2 affinity beads or glutathione-Sepharose beads; which protein was the bait is not given.

Regarding Caspase-8 (from UniProt Q14790 1-479), the binding entry in test [1] was “binds”.

B1: TP53INP2 (endogenous) (protein, UniProt Q8IXH6 1-220)
chain: T1 sequence
As for B1, the binding entry in test [2] is recorded as “binds”.

B2: FLAG-tagged human TP53INP2 (wild type) (protein, UniProt Q8IXH6 1-220)
chain: T1 sequence
As to B2, the binding entry in test [3] is reported as “binds”.

B3: FLAG-tagged human TP53INP2-S49A/S65A/T74A (protein, UniProt Q8IXH6 1-220)
chain: T1 sequence with S49A, S65A, T74A
As for B3, the binding entry in test [3] is “binds”.
